# According to article PMC7311471, “The iron–sulphur cluster in human DNA2 is required for all biochemical activities of DNA2”:
# Residue numbers refer to the chain shown, from its start. Construct, isoform or probe ends are uncertain for at least one entry. For some of these results: Weaker means in comparison with the reference protein, sequence or condition of that experiment. For some of these results: At least one verdict rests on a figure or table, not on a statement of the authors. Where a protein sequence is shown, tags need not be part of it.
# Columns and labels:
# Experiment in all cases: EMSA
# DNA2 C396S (human) = molecular target: T1, DNA2 C396S (human) (UniProt P51530); details: 200 nM protein, EMSA: 25 mM Tris-HCl pH 8.0, 0.1 mg/ml BSA, 5 mM EDTA, with or without 1 mM DTT, 30 min on ice, recombinant protein, residues 1-1060, protein details: His6 and FLAG, label: FAM; for binding result: 4-5 nM FAM-DNA or 1 nM 32P-DNA
# T1 sequence (looked up): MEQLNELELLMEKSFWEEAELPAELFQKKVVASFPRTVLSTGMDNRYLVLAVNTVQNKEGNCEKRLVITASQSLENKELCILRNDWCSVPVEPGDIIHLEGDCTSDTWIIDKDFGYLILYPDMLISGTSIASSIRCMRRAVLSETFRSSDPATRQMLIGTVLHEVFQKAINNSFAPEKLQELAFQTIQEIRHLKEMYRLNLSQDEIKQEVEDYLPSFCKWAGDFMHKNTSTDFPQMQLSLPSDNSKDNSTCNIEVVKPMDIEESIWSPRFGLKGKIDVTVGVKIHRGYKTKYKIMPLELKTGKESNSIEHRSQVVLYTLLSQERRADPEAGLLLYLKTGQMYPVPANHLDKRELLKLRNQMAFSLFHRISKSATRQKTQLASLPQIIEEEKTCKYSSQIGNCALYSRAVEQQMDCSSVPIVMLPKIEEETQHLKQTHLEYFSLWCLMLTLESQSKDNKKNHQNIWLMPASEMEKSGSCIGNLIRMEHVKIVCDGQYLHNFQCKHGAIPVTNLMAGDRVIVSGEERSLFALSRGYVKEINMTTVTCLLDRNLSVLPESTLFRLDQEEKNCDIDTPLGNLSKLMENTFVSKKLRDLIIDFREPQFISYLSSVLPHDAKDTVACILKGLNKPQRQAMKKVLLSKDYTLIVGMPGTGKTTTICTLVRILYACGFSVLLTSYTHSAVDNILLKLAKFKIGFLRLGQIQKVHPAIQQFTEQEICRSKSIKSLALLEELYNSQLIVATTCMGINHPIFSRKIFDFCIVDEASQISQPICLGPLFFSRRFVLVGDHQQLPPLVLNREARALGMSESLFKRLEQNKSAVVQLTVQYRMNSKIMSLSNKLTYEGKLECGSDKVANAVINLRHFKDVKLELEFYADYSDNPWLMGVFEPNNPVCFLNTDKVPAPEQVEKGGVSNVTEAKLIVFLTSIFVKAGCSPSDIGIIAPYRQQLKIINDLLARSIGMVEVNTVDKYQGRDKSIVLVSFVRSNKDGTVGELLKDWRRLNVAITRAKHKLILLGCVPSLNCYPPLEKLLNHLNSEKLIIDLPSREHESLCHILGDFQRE
# DNA2 WT (human) = molecular target: T2, DNA2 WT (human) (UniProt P51530); details: 20 nM protein, EMSA: 25 mM Tris-HCl pH 8.0, 0.1 mg/ml BSA, 5 mM EDTA, with or without 1 mM DTT, 30 min on ice, 4-5 nM FAM-DNA or 1 nM 32P-DNA, recombinant protein, residues 1-1060, protein details: His6 and FLAG, label: FAM
# T2 sequence (looked up): T1 sequence (looked up) with S396C
# HLTF (human) = molecular target: T3, HLTF (human) (UniProt Q14527); details: 13 nM protein, not sensitive to H2O2; EMSA: 25 mM Tris-HCl pH 8.0, 0.1 mg/ml BSA, 5 mM EDTA, with or without 1 mM DTT, 30 min on ice; 4-5 nM FAM-DNA or 1 nM 32P-DNA; recombinant protein; protein details: FLAG; label: 5' FAM on X01
# T3 sequence (looked up, limits assumed): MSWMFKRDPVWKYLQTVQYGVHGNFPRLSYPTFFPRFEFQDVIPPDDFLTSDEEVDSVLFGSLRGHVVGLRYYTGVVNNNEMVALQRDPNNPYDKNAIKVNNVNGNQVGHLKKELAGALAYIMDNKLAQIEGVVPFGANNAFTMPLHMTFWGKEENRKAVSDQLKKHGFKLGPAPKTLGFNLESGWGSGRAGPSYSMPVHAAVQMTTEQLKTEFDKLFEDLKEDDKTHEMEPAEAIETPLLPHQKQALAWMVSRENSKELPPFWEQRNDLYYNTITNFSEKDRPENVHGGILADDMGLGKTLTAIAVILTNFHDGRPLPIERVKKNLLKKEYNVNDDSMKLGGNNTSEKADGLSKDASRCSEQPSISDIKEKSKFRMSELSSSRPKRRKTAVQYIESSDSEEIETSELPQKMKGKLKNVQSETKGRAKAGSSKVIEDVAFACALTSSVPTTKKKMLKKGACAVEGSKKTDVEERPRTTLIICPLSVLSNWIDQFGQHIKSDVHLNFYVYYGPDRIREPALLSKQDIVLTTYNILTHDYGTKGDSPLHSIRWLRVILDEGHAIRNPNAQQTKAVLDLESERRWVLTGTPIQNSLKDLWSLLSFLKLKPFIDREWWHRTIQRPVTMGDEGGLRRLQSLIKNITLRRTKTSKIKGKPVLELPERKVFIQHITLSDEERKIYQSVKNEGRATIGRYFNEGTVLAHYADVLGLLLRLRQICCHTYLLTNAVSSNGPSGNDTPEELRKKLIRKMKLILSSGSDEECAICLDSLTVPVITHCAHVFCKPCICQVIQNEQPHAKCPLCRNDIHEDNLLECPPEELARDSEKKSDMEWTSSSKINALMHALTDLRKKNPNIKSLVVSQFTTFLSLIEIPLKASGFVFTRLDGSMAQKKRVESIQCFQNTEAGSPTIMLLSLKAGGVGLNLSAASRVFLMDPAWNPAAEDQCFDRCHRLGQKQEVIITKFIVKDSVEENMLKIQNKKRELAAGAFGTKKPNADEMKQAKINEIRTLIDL
sequence,measurement,setting,value
ATCGATAGTCGGATCCTCTAGACAGCTCCATGTAGCAAGGCACTGGTAGAATTCGGCAGCGT / ACGCTGCCGAATTCTACCAGTG [5' overhang 40 nt],binding signal,"DNA2 C396S (human); complete binding, 4-5 nM FAM-DNA or 1 nM …",100 % bound
same,binding result,DNA2 WT (human); complete binding,binds
ATCGATAGTCGGATCCTCTAGACAGCTCCATGTAGCAAGGCACTGGTAGAATTCGGCAGCGT / ACGCTGCCGAATTCTACCAGTGCCTTG [5' overhang 35 nt],binding result,DNA2 C396S (human); complete only above 35 nt,binds more weakly
same,binding result,DNA2 WT (human); complete binding,binds
ATCGATAGTCGGATCCTCTAGACAGCTCCATGTAGCAAGGCACTGGTAGAATTCGGCAGCGT / ACGCTGCCGAATTCTACCAGTGCCTTGCTACA [5' overhang 30 nt],binding result,DNA2 C396S (human); not complete,binds more weakly
same,binding result,DNA2 WT (human); complete binding,binds
ATCGATAGTCGGATCCTCTAGACAGCTCCATGTAGCAAGGCACTGGTAGAATTCGGCAGCGT / ACGCTGCCGAATTCTACCAGTGCCTTGCTACATGGAG [5' overhang 25 nt],binding result,DNA2 C396S (human); not complete,binds more weakly
same,binding result,DNA2 WT (human); complete binding,binds
ATCGATAGTCGGATCCTCTAGACAGCTCCATGTAGCAAGGCACTGGTAGAATTCGGCAGCGT / ACGCTGCCGAATTCTACCAGTGCCTTGCTACATGGAGCTGTC [5' overhang 20 nt],binding result,DNA2 C396S (human); little binding,binds more weakly
same,binding result,DNA2 WT (human); complete binding,binds
ATCGATAGTCGGATCCTCTAGACAGCTCCATGTAGCAAGGCACTGGTAGAATTCGGCAGCGT / ACGCTGCCGAATTCTACCAGTGCCTTGCTACATGGAGCTGTCTAGAG [5' overhang 15 nt],binding result,DNA2 C396S (human); little binding,binds more weakly
same,binding result,DNA2 WT (human); partial binding,binds more weakly
GACGCTGCCGAATTCTACCAGTGCCTTGCTAGGACATCTTTGCCCACCTGCAGGTTCACCC / TGGGTGAACCTGCAGGTGGGCAAAGATGTCCATCTGTTGTAATCGTCAAGCTTTATGCCGTT / GAACGGCATAAAGCTTGACGATTACAACAGATCATGGAGCTGTCTAGAGGATCCGACTATCGA / ATCGATAGTCGGATCCTCTAGACAGCTCCATGTAGCAAGGCACTGGTAGAATTCGGCAGCGT [4-way junction],binding result,HLTF (human),binds
